No constants are given. Whether binding was seen depends on the method and setting. Binding calls can cover weak binding; strength is not graded here.
Experiments:
[1] = biological target: recombinant RON13 dead kinase (Toxoplasma gondii); experiment: HDX-MS; 60 pmol (1.3 uM) rRON13dk alone or with a threefold molar excess of RON4; 81.0% D2O, 22 °C, 3 sec, 30 sec, 5 min; 10 mM HEPES pH 7.5, 100 mM NaCl, 0.5 mM EDTA; both purified
[2] = biological target: recombinant RON13 dead kinase (rRON13dk) (Toxoplasma gondii); experiment: HDX-MS; 1.3 uM (60 pmol) rRON13dk alone or preincubated with a threefold molar excess of recombinant RON4; exchange for 3, 30 and 300 s at room temperature in 96% D2O, 10 mM HEPES pH 7.5, 100 mM NaCl, 0.5 mM EDTA; both purified

B1: recombinant dephosphorylated RON4 (protein, UniProt B6KJ32 27-984)
chain: SPPTPAPRMYPNMNERPLSAESRLTPGTYRSELHIDLKSPQKTASQSSLAPTGDNNSKVESIIAGSDTTPRSAEGTSESPPVPQLGTPPRPAPRRSKGEGERQPPTAAPRTSRSVDTGSGSDASTEQQAGGQKVVTPIPASKGIYPSLDELRRSQESNVDAGSGTSTNEGGGTSEGPQVPQSGIPPRTGRRRAKARNRKRHPTPASRESSSEDENQPPTTASRPSNGEGESQPPTAAPRTSRSVDTGSGSDASTEQQAGGQKVVTPIPASKGIYPNLDELRQTQEGEESAPQPADVTWFSMSVPMGVVDRRVSRALKEQFFQFLQHLSADYPKQVQTVYEFLGWVADKLPENEEEVQMFIDALNTTEAMVGKAARWIFKAIPERERETIYSSFYQMFRDKLPKKFFETAEGMNPDVGQYFSAEEPVAVTPEIPAKSEEDSEAAETPTPLRRQANVAAQVLHPLPAKGVTRREWIPWPKMQNAISKAHGPLTRVPEWTPVTGSCALGDGYTDIDVTKATTDVLFRITLLILQQIRRKKTERGKLEDDQALVALCSAAGAFVDAWQHQQQALILEDPGTPKAHAQLIERLRNAGKYFMKSYDETTGESDHQQWKKNKAEVSKLGKSALMKSCVKYIKASGDVATRPFDSGTAKYPSRSLYGGIANTLETPFADSEAVAKAVHDYAKEHKKPEKLVGLCGALQISGYFKKCFSDAGRLSSVSFFHQHVDGASVLVRTLARERPIGRHALSQAICDPNISAQYFEGAFRLFSSTVSQEWEKENLFAQLASWTGKEMVLAPSLEEQAAVPPAQPAYETVYGDEEDRIYRIHVSGRHSSPQEVLYVGGIPSTVKPQQVHVLGPTVSDESRRMIHPVRHRSRTAPSSEAASTAAESSDEDPLPAENATAFLGVTPQEEESDAYKHTLDFDAVSPRKNKNKENRISAPLKQSDTLIEESTSKTSEL
modifications: dephosphorylated with alkaline phosphatase (CIAP)
binding [1]: binds

B2: recombinant dephosphorylated RON4 (rRON4) (protein, UniProt B6KJ32 27-984)
chain: B1 chain
binding [2]: binds

From publication PMC8213820
